Results published in article PMC5821886.
Results are given in words; binding and its absence hold for the method and conditions named. Binding can be weak; no strength is given.

The chains behind the UniProt entries cited, without tags or fusion partners.
UniProt K4BND8: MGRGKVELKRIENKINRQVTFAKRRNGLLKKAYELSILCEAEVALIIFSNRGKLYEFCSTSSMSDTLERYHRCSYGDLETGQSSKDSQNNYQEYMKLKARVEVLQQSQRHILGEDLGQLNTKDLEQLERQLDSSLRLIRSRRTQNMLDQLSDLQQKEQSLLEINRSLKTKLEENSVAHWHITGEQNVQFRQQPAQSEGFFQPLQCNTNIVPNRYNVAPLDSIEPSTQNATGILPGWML

Molecular target: TAGL1 (TOMATO AGAMOUS LIKE1) (tomato) (UniProt Q8H281)
Assay: two-hybrid; … GAL4 Two-Hybrid System III (Clontech); prey pGADT7-SlCMB1 in Y187 mated with baits in pGBKT7 in Y2HGold; diploids selected on DDO, then growth on QDO and blue colour on QDO/X (X-a-Gal); 30 °C, 3-5 d

- binding: binds
Substance: SlCMB1 (from UniProt K4BND8 1-238)
